Results published in publication PMC7819943, “Rice protein-binding microarrays: a tool to detect cis-acting elements near promoter regions in rice”.
The list shows a part of the results.

Amino acid sequences for entries named in this document (tags omitted).
UniProt Q0JBA9, entry or part of it: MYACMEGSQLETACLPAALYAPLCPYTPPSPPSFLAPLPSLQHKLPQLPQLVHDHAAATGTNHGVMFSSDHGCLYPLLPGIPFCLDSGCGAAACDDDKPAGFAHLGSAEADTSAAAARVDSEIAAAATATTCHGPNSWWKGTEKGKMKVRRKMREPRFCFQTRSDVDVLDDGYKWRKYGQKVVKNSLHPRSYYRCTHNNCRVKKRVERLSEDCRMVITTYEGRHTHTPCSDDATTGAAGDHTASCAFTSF

The sequences below were run against OsWRKY34 (Oryza sativa, UniProt Q0JBA9 1-250) (assay: protein-binding microarray (RPBM); PBS, 2% BSA, 51.3 ng/ul salmon testes DNA, 50 uM zinc acetate, 200 nM TF, 25 C, 1 h; high values mean tight binding). Conditions: protein: recombinant; tags: N-terminal polyhistidine and DsRed monomer fusion (pET32a); label: CyDye5-dUTP incorporated in the synthesized complementary strand; 3' TTTTT single-stranded linker to array surface; dsDNA, one strand shown.
Outline: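 Binding signal here means per-feature fluorescence intensity in arbitrary units. The values were read on an Axon 4000B scanner after a custom Agilent array, double-stranded by primer extension with Cy5-dUTP, was incubated with 200 nM protein at 25 °C for 1 h in PBS with 2% BSA, salmon testes DNA and 50 µM zinc acetate, then washed. The proteins were transcription factors with an N-terminal polyhistidine tag and DsRed, expressed in E. coli BL21-CodonPlus and purified on Ni–NTA.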

Row | Sequence | binding signal
1 | CAAGGCTCGTTCAAAGTGTTGTTAAGTTGTTAGTCAAGCACGGAGTCACCTAGTGCAG | 8840 fluorescence intensity (a.u.)
2 | GATATGTTCATACCAGTACTTACCAATTTTAGCGATCTTGCGGAGTCACCTAGTGCAG | 10300 fluorescence intensity (a.u.)
3 | GGCAGCTTATGGTACAGGGGTACATCATCACAGATTTCTTCGGAGTCACCTAGTGCAG | 9770 fluorescence intensity (a.u.)
4 | GTCCTTAAATATTTGACGTCGTTGACTTTTTTTAAAATATCGGAGTCACCTAGTGCAG | 20900 fluorescence intensity (a.u.)
5 | TTCCACCTCACCGTTGCTATATGTCTGTAGAGAAATGTATCGGAGTCACCTAGTGCAG | 8260 fluorescence intensity (a.u.)
6 | AGTAATTTGACTTTTTCCTTAATCAAACTTCTTTAAGTTTCGGAGTCACCTAGTGCAG | 10600 fluorescence intensity (a.u.)
7 | CCACCGCTGTCACTCACTCTGTTGTCGCCACCCAACGAGGCGGAGTCACCTAGTGCAG | 8390 fluorescence intensity (a.u.)
8 | TAGAATCCACTCCCTACGACCATCGGTTTCTGACTTTCACCGGAGTCACCTAGTGCAG | 9230 fluorescence intensity (a.u.)
9 | AGGGTTTACGGGTTTTTTTGGCGGCGGCGGCGGCGGTCTCCGGAGTCACCTAGTGCAG | 10700 fluorescence intensity (a.u.)
10 | GTGGTGGTATAATTTTCTTTGTTTTCCTAATTACGACCTCCGGAGTCACCTAGTGCAG | 8490 fluorescence intensity (a.u.)
11 | GCCCGAGCTTTTTTTCCACCCCTAGCGGCGATGCGCCAATCGGAGTCACCTAGTGCAG | 8850 fluorescence intensity (a.u.)
12 | ACGCTACATTCAGTTTCCATTCTGAAATCTTTTTCGGGCCCGGAGTCACCTAGTGCAG | 9940 fluorescence intensity (a.u.)
13 | ATATCTCGATCTTACTATTCGTTTCACATTTTCCGATCCTCGGAGTCACCTAGTGCAG | 10000 fluorescence intensity (a.u.)
14 | ATTGACTTTTTCTTACACTGTTTAACCATTCGTCTTATTCCGGAGTCACCTAGTGCAG | 14000 fluorescence intensity (a.u.)
15 | GCCAGCATCATCACACAAGCACACTCGTCCGTTTTTCTAGCGGAGTCACCTAGTGCAG | 10900 fluorescence intensity (a.u.)
16 | AGTCATTTGTGCCCGCACCTATCTAGTGTTCTGTAGTAGTCGGAGTCACCTAGTGCAG | 9200 fluorescence intensity (a.u.)
17 | AACGGCTACACAACTCCACTCCAAACCTAACTCCTAGAGCCGGAGTCACCTAGTGCAG | 9660 fluorescence intensity (a.u.)
18 | GCGGTTGTCATTTTCTCCAGCACTCGACTTCCCTTTCTCCCGGAGTCACCTAGTGCAG | 8630 fluorescence intensity (a.u.)
19 | GGTAAAACTATACTTTCATAGTTGTTTCTTTCTCCAATTCCGGAGTCACCTAGTGCAG | 8120 fluorescence intensity (a.u.)
20 | ACTAATTACACGTCAGCTTGCTTAGCCGCGTCGCGCTGCTCGGAGTCACCTAGTGCAG | 9340 fluorescence intensity (a.u.)
21 | CTGGGCCCTCGTGCTGCTCTTCTCATGTCACCACCGCCGGCGGAGTCACCTAGTGCAG | 9810 fluorescence intensity (a.u.)
22 | AAATTTTCCTTTTGTCTCTCTATACATAAATATCTAATTTCGGAGTCACCTAGTGCAG | 10200 fluorescence intensity (a.u.)
23 | TAGTATTTAAAAGTGGTGCTCATAGGGGTAGGGTTTGCTGCGGAGTCACCTAGTGCAG | 8520 fluorescence intensity (a.u.)
24 | ACTCTGTCTCACTCTTCTTCTCTCACTGGTCGGCGGCGGCCGGAGTCACCTAGTGCAG | 8430 fluorescence intensity (a.u.)
25 | TATCATATGTCTAAAACATGTTCGATGCTCGTTTGTCACGCGGAGTCACCTAGTGCAG | 8140 fluorescence intensity (a.u.)
26 | ATCGTACCAAACGTTTCCTCACATGCATACTGAACTTTGACGGAGTCACCTAGTGCAG | 8880 fluorescence intensity (a.u.)
27 | TTTGCCTCAATGTCTGTTTTTGACTTTCTTACCATGCACTCGGAGTCACCTAGTGCAG | 12300 fluorescence intensity (a.u.)

Row | Sequence | binding signal
28 | GTTTGGACCAAAATGCAATTGTACCCTTTTCTGCCTCTCACGGAGTCACCTAGTGCAG | 8340 fluorescence intensity (a.u.)
29 | CCGTTTCGAGTTAACCGGCGCGCGTTTTCACCGCGAACTACGGAGTCACCTAGTGCAG | 9370 fluorescence intensity (a.u.)
30 | CGCCGCCAGCCCTCGTCGTCCGAGCGACCGCCACCGCCACCGGAGTCACCTAGTGCAG | 9280 fluorescence intensity (a.u.)
31 | CCCTCTCCCTGTCGTCCGCCATCCTTCCAGGGCGTCGCGACGGAGTCACCTAGTGCAG | 8880 fluorescence intensity (a.u.)
32 | TTGGCGTACCATGTAACTGATGCTATTCTGTTCTTCCTTCCGGAGTCACCTAGTGCAG | 8070 fluorescence intensity (a.u.)
33 | TGGTTACCTGGAACGCGCGGAGCCAGTCGGGGTCTTCTTCCGGAGTCACCTAGTGCAG | 8090 fluorescence intensity (a.u.)
34 | CTAGCTATTGGCCAATCCCACTGTCGATCCTTTTGACAAACGGAGTCACCTAGTGCAG | 9690 fluorescence intensity (a.u.)
35 | ACTCGTTGTTTTTCCTTCTCACTTTTCAACTGCACGAACGCGGAGTCACCTAGTGCAG | 10100 fluorescence intensity (a.u.)
36 | TGCTGTAGTTGACTTATGGAATATTAAAATGCTGTTAATTCGGAGTCACCTAGTGCAG | 8060 fluorescence intensity (a.u.)
37 | CATCCGTCGCTTCGCTTTCGTTCGAACGCGTTGGACCCAGCGGAGTCACCTAGTGCAG | 8600 fluorescence intensity (a.u.)
38 | ACTGTCCACTCACTTTTTCTTCACCCAGGAGACGAAATTTCGGAGTCACCTAGTGCAG | 11200 fluorescence intensity (a.u.)
39 | AATTCTCTCTCTCTCTCTTCTATCCGTGCGCCTCAACTTTCGGAGTCACCTAGTGCAG | 14100 fluorescence intensity (a.u.)
40 | TGGTGGTCTTCTTTATCTTTACACATTGCCTTTGGCTAACCGGAGTCACCTAGTGCAG | 10200 fluorescence intensity (a.u.)
41 | CCACTTTCTCTCTCTCTCTCTCTCTCTCTCTCTCGTCGCGCGGAGTCACCTAGTGCAG | 8600 fluorescence intensity (a.u.)
42 | TTGTTCAGTTGTGTCACCCCGGTCTCTAAACTTGGATTTGCGGAGTCACCTAGTGCAG | 9010 fluorescence intensity (a.u.)
43 | TCGTTGACTTTCTTGCCGTCTCGCCGCCGCCGCCGCCATGCGGAGTCACCTAGTGCAG | 23600 fluorescence intensity (a.u.)
44 | ACATGGGAATTTTGGTGGGATGGGGATGGGGAATTGACCTCGGAGTCACCTAGTGCAG | 14100 fluorescence intensity (a.u.)
45 | CTTTTCTCTCTCTCGGTCTCTCTCCCTTGCTTCCCTCTCTCGGAGTCACCTAGTGCAG | 9150 fluorescence intensity (a.u.)
46 | GCTACTACCACATTATTGTGCTTGTTTTTTATACATATTACGGAGTCACCTAGTGCAG | 10300 fluorescence intensity (a.u.)
47 | TACTTATCCTGCGTTTCAAAGAGGACCTAAATCTTGTCTTCGGAGTCACCTAGTGCAG | 8700 fluorescence intensity (a.u.)
48 | AATCTTTGACCCGCTGTCAGTTCATCATCCGTCTACTCTACGGAGTCACCTAGTGCAG | 9620 fluorescence intensity (a.u.)
49 | TGTGTGATTGCTGTTCTTCTCTCTCGCGTCCACGTTCGCGCGGAGTCACCTAGTGCAG | 10500 fluorescence intensity (a.u.)
50 | AGCGCCGCCGCCACCACCACCACCGCCACTGCCACTATACCGGAGTCACCTAGTGCAG | 9580 fluorescence intensity (a.u.)
51 | TCGTAAGATGCTCTTTTTTTTCTCCTTATACACTCATCATCGGAGTCACCTAGTGCAG | 8900 fluorescence intensity (a.u.)
52 | ATGCGCAGTCAGCTACTGTCTTGTTTCTGCCATCAAGCTTCGGAGTCACCTAGTGCAG | 9200 fluorescence intensity (a.u.)
53 | CGTGCCACATAAACAGCCCATACCTCCTCATTGCCTCGCCCGGAGTCACCTAGTGCAG | 8400 fluorescence intensity (a.u.)
54 | GGCGTATGTTGTTTAGGCCTCTATTCGTATATGCACTTCCCGGAGTCACCTAGTGCAG | 9060 fluorescence intensity (a.u.)

Looked up above:
binding signal with CTGGGCCCTCGTGCTGCTCTTCTCATGTCACCACCGCCGGCGGAGTCACCTAGTGCAG reads 9810 fluorescence intensity (a.u.)
binding signal with GCTACTACCACATTATTGTGCTTGTTTTTTATACATATTACGGAGTCACCTAGTGCAG reads 10300 fluorescence intensity (a.u.)
binding signal with TCGTTGACTTTCTTGCCGTCTCGCCGCCGCCGCCGCCATGCGGAGTCACCTAGTGCAG reads 23600 fluorescence intensity (a.u.)
